These are yes or no findings as the source states them, for the method shown. Some results given as binding are weak or reduced against the parent protein; the word gives no strength.
Target: hTNFSF9-His (monomeric human TNFSF9 extracellular domain with 9x-Histidine tag) (human) (UniProt P41273)
Assay: MSD sandwich ELISA, sulfo-tagged SC113.61 at 0.5 ug/mL as detector; standard curve with purified recombinant hTNFSF9-His

Sequences of proteins named here, by UniProt entry; tags and fusion partners are left off. A change or cut given only in a name is not applied to a line headed by its entry.
UniProt P41273: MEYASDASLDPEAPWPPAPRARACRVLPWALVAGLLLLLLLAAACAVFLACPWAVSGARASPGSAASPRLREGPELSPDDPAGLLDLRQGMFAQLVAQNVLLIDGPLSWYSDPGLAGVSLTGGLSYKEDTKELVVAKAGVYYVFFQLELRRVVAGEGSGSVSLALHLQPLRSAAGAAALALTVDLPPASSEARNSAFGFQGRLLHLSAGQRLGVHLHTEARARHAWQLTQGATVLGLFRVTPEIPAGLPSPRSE

B1: SC113.61 (antibody, V domains shown)
VH: EVQLVESGGDLVKPGGSLKLSCAASGFTFSNYGMSWVRQTPDKRLEWVATISNGGISTYYPDSVKGRFTISRDNAKNTLYLQMNSLKSEDTAMYYCVRPGRGYFDYWGQGTTLTVSS
VL: DIVMTQAAPSVPVTPGESVSISCRSNKSLLHSDGNTYLYWFLQRPGQSPQLLIYRMSNLASGVPDRFSGSGSGTAFTLRISRVEAEDVGVYYCMQHLEYPWTFGGGTKLEIK
modifications: MSD SULFO-TAG NHS Ester label on amines (sites not given)
binding: binds

Source: patent publication US20190016812A1
